Patent US20230279126A1
No constants are given. Whether binding was seen depends on the method and setting. Some entries that bind do so weakly or less than the wild type.

Biological target: T1, extracellular domain of mouse IL12RB1 (mIL12Rb1 ECD) (mouse) (UniProt Q60837)
T1 sequence: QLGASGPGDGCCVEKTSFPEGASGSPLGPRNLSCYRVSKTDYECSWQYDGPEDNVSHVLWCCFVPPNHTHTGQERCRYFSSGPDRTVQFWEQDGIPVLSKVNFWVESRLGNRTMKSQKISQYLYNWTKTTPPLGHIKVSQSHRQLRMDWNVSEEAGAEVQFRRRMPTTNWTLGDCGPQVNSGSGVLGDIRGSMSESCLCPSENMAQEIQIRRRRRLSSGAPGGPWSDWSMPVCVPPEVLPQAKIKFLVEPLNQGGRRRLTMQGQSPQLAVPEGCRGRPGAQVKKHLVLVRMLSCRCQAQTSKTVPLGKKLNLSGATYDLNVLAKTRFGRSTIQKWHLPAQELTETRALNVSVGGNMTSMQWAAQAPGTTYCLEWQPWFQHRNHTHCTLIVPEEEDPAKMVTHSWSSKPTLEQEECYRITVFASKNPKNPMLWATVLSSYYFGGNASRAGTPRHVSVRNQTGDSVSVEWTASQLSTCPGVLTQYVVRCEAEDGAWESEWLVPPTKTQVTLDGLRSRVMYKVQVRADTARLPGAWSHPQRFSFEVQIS
Assay: periplasmic extract ELISA (PE-ELISA) of phage clones, colorimetric

binding: binds
B1: mIL12Rb1_VHH14 (VHH)
VHH: QVQLQESGGGSVQAGGSLRLSCAVSGYDYCGYDVRWYRQAPGKEREFVSGINSDGSTSYADSVKGRFTISQDNAENTSYLHMFSLKPEDTAMYYCKTESPAGESAWCRNFRGMDYWGKGTQVTVSS
